Assay results taken from article PMC5876183.
These are yes or no findings as the source states them, for the method shown. In cells and extracts the contact can be indirect. Some binding calls cover weakened binding; strength is not graded here. Values belong to the substance of their own block, whether it stands above or below them.

Protein sequences, listed by entry. Tags and fused reporters are not part of them.
UniProt Q9NS91: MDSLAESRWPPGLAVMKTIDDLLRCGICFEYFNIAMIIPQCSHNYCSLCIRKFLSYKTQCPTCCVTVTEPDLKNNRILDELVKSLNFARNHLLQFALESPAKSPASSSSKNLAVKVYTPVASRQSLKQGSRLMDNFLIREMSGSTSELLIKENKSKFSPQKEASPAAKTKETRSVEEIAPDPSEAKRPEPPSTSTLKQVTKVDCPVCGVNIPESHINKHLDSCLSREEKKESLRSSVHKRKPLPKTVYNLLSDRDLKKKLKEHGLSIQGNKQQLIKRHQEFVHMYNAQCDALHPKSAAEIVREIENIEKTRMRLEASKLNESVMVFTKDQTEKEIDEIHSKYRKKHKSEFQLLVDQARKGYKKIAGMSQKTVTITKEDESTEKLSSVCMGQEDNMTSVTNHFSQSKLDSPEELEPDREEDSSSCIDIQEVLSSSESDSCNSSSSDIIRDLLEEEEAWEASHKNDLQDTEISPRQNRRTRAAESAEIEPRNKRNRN
UniProt P12004: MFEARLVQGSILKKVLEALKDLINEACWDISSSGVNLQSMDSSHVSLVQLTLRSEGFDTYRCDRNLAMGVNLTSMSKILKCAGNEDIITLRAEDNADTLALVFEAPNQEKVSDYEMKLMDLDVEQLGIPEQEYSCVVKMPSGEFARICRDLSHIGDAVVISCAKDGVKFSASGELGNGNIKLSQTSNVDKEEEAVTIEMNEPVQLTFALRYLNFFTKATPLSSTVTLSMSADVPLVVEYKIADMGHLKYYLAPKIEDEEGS
UniProt P61081: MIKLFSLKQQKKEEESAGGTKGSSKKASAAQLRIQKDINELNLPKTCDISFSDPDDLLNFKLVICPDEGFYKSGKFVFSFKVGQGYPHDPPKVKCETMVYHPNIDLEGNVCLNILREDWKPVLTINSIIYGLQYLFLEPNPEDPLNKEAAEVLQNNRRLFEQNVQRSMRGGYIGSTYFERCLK
UniProt Q96LD8: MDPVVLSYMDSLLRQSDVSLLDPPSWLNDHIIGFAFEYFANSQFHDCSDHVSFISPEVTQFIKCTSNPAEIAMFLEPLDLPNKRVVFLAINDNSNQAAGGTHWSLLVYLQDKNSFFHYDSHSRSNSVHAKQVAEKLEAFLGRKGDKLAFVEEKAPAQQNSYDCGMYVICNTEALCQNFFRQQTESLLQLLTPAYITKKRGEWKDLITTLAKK

What was measured:
[1] = target: 3Flag-RAD18 (UniProt Q9NS91); test: co-IP; exogenous (transfected) RAD18 and UBC12, Fig. S1C; details not shown
[2] = target: proliferating cell nuclear antigen (PCNA) (human (endogenous in HEK293T)) (UniProt P12004); test: co-IP; endogenous proteins; HEK293T cells treated with H2O2 for the indicated time, lysed in Triton-X100 lysis buffer, sonicated 15 times; immunoprecipitation with antibody against PCNA
[3] = target: RAD18 (human (endogenous in HEK293T)) (UniProt Q9NS91); test: co-IP; endogenous proteins; HEK293T cells lysed in NP-40 lysis buffer, sonicated 15 times; immunoprecipitation with antibody against RAD18

binding [1]: binds
Substance: Myc-UBC12 (from UniProt P61081 1-183)

Substance: NEDP1 (from UniProt Q96LD8 1-212) (enzyme)
binding [2]: binds

binding [3]: binds
Substance: UBC12 (from UniProt P61081 1-183)
